These are yes or no findings as the source states them, for the method shown. Binding seen in cells or lysates may run through a third protein. Some entries that bind do so weakly or less than the wild type.
Biological target: T1, PLIN2 (human (endogenous in RKO and SW480)) (UniProt Q99541)
T1 sequence: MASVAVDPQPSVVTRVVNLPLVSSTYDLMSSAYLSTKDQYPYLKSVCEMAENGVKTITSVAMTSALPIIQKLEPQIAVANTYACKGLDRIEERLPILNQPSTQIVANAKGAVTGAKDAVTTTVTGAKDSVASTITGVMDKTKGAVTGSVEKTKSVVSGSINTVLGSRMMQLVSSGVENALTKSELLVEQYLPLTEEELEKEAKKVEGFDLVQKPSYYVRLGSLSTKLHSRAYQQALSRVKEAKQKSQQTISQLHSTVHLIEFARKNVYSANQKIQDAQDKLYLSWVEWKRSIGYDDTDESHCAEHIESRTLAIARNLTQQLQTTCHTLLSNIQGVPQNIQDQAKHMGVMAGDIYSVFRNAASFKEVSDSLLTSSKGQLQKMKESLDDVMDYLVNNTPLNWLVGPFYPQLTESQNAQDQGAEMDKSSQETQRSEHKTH
Test: co-IP; endogenous proteins in RKO or SW480 lysate (IP lysis buffer); primary antibody and protein A/G beads overnight at 4 °C, three washes, Western blot; IgG control

Protein sequences, listed by entry. Tags and fused reporters are not part of them.
UniProt P16671: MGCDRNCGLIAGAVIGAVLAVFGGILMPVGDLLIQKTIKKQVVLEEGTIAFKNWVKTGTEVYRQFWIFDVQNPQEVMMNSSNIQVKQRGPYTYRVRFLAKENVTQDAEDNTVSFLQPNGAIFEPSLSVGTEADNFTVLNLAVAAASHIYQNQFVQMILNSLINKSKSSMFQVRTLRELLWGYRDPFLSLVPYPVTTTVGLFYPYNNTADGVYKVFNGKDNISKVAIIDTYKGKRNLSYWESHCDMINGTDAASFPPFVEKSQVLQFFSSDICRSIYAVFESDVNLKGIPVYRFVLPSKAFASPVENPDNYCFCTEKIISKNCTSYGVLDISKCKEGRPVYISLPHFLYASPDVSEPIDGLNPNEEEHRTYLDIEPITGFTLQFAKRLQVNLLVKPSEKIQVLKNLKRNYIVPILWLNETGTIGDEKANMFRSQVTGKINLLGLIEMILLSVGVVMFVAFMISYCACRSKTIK

In the case of “CD36 (from UniProt P16671 1-472) (receptor)”, the binding is reported as “binds”.
